According to the supplement of paper PMC12067093, “Discovery and optimisation of a covalent ligand for TRIM25 and its application to targeted protein ubiquitination” (Chemical Science, 2025):
The other results are listed elsewhere or left out.

Protein sequences, listed by entry. Tags and fused reporters are not part of them. Lines headed by an entry give the natural chain unless they say otherwise; changes in a name come on top.
UniProt P26639: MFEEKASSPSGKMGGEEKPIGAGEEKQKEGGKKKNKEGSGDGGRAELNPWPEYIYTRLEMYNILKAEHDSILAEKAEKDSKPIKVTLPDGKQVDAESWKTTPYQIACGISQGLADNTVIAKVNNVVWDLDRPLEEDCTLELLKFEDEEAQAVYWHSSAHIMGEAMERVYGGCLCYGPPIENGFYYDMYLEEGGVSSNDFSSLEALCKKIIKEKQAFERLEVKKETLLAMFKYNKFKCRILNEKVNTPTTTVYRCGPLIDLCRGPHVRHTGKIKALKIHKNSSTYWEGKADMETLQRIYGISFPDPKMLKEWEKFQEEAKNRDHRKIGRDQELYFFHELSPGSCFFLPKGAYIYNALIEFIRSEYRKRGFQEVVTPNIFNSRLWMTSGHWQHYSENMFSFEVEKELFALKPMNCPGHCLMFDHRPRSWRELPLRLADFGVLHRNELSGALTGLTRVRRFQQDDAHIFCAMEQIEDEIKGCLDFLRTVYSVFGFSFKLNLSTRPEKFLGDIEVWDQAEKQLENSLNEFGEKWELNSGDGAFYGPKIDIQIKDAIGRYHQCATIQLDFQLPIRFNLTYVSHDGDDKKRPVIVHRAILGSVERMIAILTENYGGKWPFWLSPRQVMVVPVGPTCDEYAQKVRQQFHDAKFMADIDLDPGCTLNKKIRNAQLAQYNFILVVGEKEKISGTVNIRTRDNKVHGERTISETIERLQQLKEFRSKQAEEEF
UniProt Q6P1N9: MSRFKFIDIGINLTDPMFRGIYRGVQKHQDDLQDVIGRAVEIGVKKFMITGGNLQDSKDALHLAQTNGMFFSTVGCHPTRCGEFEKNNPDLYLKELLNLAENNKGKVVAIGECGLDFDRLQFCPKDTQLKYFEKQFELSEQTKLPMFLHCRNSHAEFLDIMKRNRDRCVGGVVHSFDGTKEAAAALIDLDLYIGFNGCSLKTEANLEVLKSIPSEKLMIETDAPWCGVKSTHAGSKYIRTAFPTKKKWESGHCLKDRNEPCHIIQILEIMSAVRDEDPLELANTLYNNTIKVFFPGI
UniProt Q66K14, whole entry, looked up: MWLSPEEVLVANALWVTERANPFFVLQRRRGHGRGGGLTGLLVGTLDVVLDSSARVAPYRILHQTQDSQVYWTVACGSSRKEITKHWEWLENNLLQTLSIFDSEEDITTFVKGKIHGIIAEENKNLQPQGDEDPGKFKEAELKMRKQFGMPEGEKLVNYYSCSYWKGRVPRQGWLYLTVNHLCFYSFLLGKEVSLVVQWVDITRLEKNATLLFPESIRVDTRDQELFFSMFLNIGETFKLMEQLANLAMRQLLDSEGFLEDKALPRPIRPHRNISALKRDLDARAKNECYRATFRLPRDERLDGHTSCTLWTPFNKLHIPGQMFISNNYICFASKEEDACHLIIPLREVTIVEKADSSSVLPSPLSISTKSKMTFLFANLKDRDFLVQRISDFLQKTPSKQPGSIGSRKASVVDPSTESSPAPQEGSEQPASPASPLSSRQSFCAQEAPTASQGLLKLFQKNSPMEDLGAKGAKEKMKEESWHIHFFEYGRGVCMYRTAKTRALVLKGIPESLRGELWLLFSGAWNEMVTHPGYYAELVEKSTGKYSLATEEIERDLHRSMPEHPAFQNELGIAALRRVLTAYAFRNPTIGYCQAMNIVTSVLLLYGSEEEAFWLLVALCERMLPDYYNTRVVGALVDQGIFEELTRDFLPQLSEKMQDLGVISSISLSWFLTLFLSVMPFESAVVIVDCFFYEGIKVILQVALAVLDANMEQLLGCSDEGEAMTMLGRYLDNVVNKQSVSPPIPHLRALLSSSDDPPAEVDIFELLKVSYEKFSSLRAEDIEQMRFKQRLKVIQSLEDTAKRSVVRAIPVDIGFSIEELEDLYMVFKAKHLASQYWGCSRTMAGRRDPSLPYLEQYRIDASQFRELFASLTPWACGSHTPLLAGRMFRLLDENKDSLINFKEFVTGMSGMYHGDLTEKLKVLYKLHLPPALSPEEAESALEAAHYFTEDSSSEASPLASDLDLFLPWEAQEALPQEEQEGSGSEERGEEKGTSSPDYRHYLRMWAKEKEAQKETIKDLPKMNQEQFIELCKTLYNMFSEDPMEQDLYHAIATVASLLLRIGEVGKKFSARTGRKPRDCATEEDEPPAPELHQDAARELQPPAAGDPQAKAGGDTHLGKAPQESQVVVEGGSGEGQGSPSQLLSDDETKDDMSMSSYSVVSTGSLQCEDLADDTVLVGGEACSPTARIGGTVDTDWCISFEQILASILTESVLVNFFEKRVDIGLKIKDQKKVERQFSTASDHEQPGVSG
UniProt O75528: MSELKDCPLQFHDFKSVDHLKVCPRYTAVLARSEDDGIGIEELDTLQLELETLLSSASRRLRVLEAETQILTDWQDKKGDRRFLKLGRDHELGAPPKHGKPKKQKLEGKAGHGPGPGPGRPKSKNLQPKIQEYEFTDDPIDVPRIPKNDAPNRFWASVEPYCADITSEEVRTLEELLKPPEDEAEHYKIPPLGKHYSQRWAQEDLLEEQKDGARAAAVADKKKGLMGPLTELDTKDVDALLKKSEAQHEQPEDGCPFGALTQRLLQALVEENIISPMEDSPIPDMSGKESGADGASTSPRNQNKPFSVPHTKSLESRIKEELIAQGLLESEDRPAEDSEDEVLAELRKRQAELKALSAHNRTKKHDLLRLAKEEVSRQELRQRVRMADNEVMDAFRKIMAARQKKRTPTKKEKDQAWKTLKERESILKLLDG
UniProt Q86TI0: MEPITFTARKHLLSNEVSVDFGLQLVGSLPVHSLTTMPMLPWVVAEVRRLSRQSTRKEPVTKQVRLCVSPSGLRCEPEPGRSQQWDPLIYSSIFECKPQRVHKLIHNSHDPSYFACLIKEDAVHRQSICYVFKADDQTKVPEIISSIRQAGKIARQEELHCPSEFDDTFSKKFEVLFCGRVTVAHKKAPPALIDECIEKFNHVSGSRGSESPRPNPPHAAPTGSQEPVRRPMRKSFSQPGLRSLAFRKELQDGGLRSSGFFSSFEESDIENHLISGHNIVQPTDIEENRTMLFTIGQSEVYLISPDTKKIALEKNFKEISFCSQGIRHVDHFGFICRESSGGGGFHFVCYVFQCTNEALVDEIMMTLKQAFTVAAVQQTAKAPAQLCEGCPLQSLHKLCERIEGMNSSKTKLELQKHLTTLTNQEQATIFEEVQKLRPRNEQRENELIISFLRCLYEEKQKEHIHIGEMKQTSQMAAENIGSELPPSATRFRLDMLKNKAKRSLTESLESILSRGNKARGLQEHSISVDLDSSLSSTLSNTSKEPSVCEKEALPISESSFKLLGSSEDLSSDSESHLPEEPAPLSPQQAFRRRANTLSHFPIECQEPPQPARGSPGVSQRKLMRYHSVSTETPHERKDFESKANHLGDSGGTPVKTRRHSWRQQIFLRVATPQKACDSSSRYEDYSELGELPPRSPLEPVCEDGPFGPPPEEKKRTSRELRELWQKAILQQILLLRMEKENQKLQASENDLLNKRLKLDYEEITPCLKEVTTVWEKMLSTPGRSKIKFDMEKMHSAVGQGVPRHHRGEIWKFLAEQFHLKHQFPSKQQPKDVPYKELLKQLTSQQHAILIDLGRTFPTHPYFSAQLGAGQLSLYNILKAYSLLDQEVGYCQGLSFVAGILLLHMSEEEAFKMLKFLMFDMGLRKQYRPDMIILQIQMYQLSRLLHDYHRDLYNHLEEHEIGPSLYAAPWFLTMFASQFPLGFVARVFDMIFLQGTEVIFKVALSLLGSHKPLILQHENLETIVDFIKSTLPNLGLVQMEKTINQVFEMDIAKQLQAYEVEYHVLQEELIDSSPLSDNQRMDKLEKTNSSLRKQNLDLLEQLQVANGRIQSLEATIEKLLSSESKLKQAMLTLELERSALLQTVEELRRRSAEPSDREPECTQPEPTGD
UniProt O75410: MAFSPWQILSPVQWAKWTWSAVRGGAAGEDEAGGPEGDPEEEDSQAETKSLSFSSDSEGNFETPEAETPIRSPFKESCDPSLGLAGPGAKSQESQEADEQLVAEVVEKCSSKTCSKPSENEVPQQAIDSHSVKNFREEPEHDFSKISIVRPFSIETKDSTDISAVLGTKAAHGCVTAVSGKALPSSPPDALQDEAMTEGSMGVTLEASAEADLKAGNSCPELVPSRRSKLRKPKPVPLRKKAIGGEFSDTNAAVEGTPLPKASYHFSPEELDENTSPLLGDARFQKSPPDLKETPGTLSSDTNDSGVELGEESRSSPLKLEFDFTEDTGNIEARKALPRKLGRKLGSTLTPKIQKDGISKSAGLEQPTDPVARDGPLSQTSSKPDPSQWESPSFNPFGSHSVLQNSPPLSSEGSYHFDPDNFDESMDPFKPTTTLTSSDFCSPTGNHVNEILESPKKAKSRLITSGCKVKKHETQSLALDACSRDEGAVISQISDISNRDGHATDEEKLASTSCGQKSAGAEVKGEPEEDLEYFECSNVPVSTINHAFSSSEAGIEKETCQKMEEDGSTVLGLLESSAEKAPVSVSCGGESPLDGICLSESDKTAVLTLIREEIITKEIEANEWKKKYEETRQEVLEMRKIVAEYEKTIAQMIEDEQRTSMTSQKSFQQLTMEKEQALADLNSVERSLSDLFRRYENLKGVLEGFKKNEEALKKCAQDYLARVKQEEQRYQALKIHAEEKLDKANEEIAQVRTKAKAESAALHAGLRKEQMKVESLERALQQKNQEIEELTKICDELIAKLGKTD
UniProt Q9C0D5: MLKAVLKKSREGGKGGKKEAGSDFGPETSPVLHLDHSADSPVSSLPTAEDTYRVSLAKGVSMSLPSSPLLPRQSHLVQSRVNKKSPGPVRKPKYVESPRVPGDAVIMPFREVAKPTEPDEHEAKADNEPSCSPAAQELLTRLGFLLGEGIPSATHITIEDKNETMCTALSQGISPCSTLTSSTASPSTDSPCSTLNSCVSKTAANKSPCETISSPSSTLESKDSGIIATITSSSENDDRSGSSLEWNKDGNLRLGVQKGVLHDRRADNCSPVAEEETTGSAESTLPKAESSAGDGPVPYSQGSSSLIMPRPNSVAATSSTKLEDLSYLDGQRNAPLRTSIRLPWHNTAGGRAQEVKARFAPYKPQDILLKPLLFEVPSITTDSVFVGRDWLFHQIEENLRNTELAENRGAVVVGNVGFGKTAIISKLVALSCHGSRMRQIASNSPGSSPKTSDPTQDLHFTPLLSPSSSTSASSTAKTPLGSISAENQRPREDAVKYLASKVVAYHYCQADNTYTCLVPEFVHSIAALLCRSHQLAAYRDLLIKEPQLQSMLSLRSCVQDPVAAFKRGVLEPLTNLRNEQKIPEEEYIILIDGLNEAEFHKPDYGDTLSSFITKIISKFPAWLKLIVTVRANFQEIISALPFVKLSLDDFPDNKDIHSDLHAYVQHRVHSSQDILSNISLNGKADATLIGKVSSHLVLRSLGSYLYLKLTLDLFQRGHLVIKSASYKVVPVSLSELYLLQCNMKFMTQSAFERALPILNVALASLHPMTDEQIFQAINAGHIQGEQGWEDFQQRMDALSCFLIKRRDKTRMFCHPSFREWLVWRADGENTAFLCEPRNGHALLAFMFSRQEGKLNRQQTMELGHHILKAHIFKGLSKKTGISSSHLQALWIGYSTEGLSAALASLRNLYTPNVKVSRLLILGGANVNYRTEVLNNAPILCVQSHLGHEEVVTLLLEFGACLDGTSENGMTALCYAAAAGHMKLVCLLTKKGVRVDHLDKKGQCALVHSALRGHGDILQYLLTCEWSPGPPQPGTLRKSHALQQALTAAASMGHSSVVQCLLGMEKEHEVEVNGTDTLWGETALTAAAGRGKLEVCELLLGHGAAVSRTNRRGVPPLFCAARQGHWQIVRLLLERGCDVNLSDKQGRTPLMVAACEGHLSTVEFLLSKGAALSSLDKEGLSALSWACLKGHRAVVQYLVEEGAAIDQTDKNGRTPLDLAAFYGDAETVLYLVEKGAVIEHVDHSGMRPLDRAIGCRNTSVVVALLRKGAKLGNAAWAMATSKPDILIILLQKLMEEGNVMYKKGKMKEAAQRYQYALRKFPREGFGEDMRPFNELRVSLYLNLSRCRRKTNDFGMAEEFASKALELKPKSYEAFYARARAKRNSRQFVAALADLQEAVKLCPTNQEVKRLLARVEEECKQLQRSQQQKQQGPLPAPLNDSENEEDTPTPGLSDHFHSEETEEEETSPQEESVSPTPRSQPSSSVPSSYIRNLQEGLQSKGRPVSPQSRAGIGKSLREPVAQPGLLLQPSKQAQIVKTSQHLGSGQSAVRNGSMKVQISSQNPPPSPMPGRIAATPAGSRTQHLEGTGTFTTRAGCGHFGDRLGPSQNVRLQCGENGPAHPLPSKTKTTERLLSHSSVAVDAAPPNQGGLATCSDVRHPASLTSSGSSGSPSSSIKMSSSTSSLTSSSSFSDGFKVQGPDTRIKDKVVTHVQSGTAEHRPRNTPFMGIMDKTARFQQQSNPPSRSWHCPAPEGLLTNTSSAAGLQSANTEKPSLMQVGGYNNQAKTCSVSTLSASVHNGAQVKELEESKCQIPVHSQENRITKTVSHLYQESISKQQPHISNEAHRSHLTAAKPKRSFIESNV

Compound: CC1Cc2ccccc2N1C(=O)C1CCCN(C1)C(=O)CCl (mixture of isomers) [TRIM25 ligand 11 (diastereomer mixture)]
Assay: probe-labelled cysteine peptide fold change vs DMSO (competition) (log2 fold change); higher = less target engagement (more negative = stronger competition)
Details: THP-1, incubation time: 4 h
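Note: competitive chemoproteomic profiling in live THP-1 cells with an iodoacetamide desthiobiotin (IA-DTB) probe, comparing probe-labelled peptide intensities in compound-treated cells against DMSO-treated controls.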

Target	probe-labelled cysteine peptide fold change (10 µM)	probe-labelled cysteine peptide fold change (50 µM)
TACO1_Q9BSH4_160_CQADIR (UniProt Q9BSH4)	-0.00854	0.0462
TARS_P26639_343_DQELYFFHELSPGSCFFLPK (UniProt P26639)	-0.0332	0.00388
TACO1_Q9BSH4_256_KLDSLGLCSVSCALEFIPNSK (UniProt Q9BSH4)	-0.0788	-0.13
TATDN1_Q6P1N9_226_LMIETDAPWCGVK (UniProt Q6P1N9)	-0.0502	-0.086
SYVN1_Q86TM6_307_RLPCNHIFHTSCLR (UniProt Q86TM6)	0.151	-0.269
TBC1D9B_Q66K14_1079_DCATEEDEPPAPELHQDAAR (UniProt Q66K14)	-0.0167	0.107
TAF1C_Q15572_162_LLQDLGGHQPWGCPWAYLSNR (UniProt Q15572)	0.124	0.0532
TADA3_O75528_255_SEAQHEQPEDGCPFGALTQR (UniProt O75528)	-0.0901	-0.151
TATDN1_Q6P1N9_81_CGEFEK (UniProt Q6P1N9)	-0.107	-0.107
TACC3_Q9Y6A5_242_HGGVCAPAAVATSPPGAIPK (UniProt Q9Y6A5)	-0.0737	-0.214
TBC1D9B_Q66K14_340_EEDACHLIIPLR (UniProt Q66K14)	0.146	0.252
TBC1D1_Q86TI0_766_LDYEEITPCLK (UniProt Q86TI0)	0.0592	-0.032
TBCD_Q9BTW9_1075_LLALCK (UniProt Q9BTW9)	0.0903	0.209
TBC1D4_O60343_74_SQKPEAGGCGAPAAR (UniProt O60343)	-0.0413	-0.117
TAP2_Q03519_540_PISQYEHCYLHSQVVSVGQEPVLFSGSVR (UniProt Q03519)	0.168	0.0109
SYMPK_Q92797_578_AVACSGAAQVR (UniProt Q92797)	-0.0221	0.216
TAF4_O00268_1022_KVDCPGPGSGAEGSGPGSVVPGSSGVGTPR (UniProt O00268)	-0.155	-0.148
TBC1D22B_Q9NU19_144_NSSDTCLR (UniProt Q9NU19)	-0.129	-0.171
SYNJ2_O15056_31_GRDDCLLFEAGTVATLAPEEK (UniProt O15056)	-0.0378	-0.193

Target	probe-labelled cysteine peptide fold change (10 µM)	probe-labelled cysteine peptide fold change (50 µM)
TCERG1_O14776_1062_YLVLDCVPEER (UniProt O14776)	0.0248	0.0542
SYAP1_Q96A49_283_TQEDEEEISTSPGVSEFVSDAFDACNLNQEDLRK (UniProt Q96A49)	0.134	0.0906
TBL3_Q12788_613_VWGLHCSR (UniProt Q12788)	0.119	-0.0493
TAF5_Q15542_632_IFAGHLADVNCTR (UniProt Q15542)	0.247	0.266
TCEA1_P23193_271_NCTYTQVQTR (UniProt P23193)	-0.162	-0.0772
TARS_P26639_467_RFQQDDAHIFCAMEQIEDEIK (UniProt P26639)	0.12	0.136
TACC1_O75410_114_TCSKPSENEVPQQAIDSHSVK (UniProt O75410)	-0.236	-0.405
TBCA_O75347_67_MMIPDCQR (UniProt O75347)	-0.191	-0.228
TBCE_Q15813_301_LEQLILSDTGISSLHFPDAGIGCK (UniProt Q15813)	-0.0112	-0.201
SZT2_Q5T011_1460_TVPSNPHYFFYCPPSSR (UniProt Q5T011)	0.0892	0.0106
TBCK_Q8TEA7_330_SIEEVYYLWCLAGGDLEK (UniProt Q8TEA7)	0.173	-0.102
TBPL1_P62380_24_CHLNLR (UniProt P62380)	-0.0383	0.0657
TBC1D13_Q9NVG8_131_RLCPDISFFQR (UniProt Q9NVG8)	-0.0127	0.0373
TBC1D2B_Q9UPU7_554_TPVCSEDQGPTR (UniProt Q9UPU7)	0.021	-0.103
TBK1_Q9UHD2_267_AENGPIDWSGDMPVSCSLSR (UniProt Q9UHD2)	-0.4	-0.461
TACC1_O75410_78_ESCDPSLGLAGPGAK (UniProt O75410)	-0.165	-0.326
TARS_P26639_254_CGPLIDLCR (UniProt P26639)	0.0498	0.049
SYK_P43405_101_THASPADLCHYHSQESDGLVCLLK (UniProt P43405)	0.059	-0.00167
TANC1_Q9C0D5_1023_GHGDILQYLLTCEWSPGPPQPGTLR (UniProt Q9C0D5)	0.153	0.0587
